Data as given in the supplement of paper PMC10849652.
This is one part of the list.

Protein sequences, listed by entry. Tags and fused reporters are not part of them. Lines headed by an entry give the natural chain unless they say otherwise; changes in a name come on top.
UniProt O95969: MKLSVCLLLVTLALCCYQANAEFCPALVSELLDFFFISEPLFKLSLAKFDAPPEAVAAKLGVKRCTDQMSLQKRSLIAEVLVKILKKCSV
UniProt Q9BY50: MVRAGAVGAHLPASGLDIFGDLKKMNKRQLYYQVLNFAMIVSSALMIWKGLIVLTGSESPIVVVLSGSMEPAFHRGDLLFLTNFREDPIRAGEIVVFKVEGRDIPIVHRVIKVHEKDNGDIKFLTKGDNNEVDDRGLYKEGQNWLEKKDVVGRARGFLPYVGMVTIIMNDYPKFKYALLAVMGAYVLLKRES
UniProt O14828: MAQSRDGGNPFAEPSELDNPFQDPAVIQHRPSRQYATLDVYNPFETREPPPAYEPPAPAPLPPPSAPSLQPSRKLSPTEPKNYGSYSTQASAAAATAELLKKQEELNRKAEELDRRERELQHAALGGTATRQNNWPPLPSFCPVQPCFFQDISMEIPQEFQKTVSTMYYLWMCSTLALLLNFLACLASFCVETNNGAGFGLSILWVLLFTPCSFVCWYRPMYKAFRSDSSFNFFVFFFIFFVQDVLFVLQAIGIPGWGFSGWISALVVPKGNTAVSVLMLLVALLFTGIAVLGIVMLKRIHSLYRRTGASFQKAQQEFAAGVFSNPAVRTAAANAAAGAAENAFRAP
UniProt P55735: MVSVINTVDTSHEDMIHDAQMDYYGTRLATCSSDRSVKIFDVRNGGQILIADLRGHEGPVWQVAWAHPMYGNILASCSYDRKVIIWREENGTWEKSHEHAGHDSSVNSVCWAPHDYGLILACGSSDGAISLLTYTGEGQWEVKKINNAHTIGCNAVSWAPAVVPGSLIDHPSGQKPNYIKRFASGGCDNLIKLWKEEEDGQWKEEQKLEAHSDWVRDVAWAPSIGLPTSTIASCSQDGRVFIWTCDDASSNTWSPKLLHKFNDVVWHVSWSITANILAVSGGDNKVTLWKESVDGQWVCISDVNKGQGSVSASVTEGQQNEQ
UniProt Q9BW04: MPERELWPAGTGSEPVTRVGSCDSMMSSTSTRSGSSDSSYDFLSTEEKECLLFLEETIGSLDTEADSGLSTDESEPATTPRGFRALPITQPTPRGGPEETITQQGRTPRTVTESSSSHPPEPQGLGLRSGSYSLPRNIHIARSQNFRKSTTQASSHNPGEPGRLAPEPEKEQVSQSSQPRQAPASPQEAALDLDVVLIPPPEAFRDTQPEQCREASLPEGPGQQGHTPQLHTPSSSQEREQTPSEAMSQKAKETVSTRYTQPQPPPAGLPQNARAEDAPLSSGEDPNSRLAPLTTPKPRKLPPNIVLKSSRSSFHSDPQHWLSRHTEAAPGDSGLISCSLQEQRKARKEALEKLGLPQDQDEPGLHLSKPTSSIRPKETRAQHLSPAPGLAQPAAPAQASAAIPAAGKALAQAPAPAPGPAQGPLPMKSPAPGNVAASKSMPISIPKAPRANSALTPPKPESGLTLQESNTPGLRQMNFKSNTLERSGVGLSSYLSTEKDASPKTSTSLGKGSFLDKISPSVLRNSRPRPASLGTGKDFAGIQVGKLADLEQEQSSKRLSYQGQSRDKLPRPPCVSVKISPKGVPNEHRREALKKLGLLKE
UniProt Q0VDG4: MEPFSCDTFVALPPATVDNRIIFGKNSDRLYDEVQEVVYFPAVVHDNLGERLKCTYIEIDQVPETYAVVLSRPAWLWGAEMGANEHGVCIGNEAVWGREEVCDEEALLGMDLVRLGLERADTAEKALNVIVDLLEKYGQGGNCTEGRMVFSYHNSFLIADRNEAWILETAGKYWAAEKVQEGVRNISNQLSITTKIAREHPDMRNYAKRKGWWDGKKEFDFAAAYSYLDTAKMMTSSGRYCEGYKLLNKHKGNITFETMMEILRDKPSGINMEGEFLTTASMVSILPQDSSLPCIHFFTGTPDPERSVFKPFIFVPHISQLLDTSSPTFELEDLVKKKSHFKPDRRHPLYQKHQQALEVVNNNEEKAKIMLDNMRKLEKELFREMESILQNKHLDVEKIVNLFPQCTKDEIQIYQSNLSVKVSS
UniProt P25815: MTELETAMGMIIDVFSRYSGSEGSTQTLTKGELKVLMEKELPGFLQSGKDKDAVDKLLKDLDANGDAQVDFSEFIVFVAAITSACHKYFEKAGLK
UniProt O75845: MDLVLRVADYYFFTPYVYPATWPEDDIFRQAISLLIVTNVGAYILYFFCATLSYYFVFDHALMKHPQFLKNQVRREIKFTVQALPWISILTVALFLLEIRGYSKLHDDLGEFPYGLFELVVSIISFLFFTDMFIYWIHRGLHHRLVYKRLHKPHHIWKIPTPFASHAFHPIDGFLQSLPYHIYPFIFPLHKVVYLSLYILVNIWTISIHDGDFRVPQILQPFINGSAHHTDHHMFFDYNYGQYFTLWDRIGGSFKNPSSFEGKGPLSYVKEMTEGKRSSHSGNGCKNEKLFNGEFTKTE
UniProt Q9Y224: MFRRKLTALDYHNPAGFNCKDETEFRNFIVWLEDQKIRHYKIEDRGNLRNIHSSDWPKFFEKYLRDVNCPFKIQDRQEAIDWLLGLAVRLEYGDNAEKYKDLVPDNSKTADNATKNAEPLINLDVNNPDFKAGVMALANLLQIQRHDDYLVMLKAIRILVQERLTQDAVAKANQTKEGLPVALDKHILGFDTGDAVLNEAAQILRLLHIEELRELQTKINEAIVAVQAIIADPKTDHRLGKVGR
UniProt O43290: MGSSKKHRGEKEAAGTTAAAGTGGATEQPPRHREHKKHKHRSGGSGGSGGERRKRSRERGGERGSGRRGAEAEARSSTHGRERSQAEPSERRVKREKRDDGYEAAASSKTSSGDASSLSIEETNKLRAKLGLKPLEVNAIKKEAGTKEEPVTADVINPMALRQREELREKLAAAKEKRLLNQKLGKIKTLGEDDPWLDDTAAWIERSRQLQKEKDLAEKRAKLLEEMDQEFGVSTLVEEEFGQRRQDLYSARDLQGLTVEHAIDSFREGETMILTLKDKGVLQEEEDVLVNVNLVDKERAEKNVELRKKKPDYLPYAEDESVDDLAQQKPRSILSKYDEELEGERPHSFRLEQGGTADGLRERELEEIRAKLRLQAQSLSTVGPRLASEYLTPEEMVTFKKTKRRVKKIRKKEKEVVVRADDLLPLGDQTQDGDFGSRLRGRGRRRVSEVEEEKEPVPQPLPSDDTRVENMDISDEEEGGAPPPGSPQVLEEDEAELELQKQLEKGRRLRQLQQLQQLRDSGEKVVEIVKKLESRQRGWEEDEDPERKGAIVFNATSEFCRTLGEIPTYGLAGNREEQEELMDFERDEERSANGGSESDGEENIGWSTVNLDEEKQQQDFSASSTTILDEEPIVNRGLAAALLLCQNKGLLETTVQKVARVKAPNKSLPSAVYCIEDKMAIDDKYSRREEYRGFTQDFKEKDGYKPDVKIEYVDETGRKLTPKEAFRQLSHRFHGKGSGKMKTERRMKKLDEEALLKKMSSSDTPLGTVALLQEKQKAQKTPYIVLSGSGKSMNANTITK
UniProt O95248: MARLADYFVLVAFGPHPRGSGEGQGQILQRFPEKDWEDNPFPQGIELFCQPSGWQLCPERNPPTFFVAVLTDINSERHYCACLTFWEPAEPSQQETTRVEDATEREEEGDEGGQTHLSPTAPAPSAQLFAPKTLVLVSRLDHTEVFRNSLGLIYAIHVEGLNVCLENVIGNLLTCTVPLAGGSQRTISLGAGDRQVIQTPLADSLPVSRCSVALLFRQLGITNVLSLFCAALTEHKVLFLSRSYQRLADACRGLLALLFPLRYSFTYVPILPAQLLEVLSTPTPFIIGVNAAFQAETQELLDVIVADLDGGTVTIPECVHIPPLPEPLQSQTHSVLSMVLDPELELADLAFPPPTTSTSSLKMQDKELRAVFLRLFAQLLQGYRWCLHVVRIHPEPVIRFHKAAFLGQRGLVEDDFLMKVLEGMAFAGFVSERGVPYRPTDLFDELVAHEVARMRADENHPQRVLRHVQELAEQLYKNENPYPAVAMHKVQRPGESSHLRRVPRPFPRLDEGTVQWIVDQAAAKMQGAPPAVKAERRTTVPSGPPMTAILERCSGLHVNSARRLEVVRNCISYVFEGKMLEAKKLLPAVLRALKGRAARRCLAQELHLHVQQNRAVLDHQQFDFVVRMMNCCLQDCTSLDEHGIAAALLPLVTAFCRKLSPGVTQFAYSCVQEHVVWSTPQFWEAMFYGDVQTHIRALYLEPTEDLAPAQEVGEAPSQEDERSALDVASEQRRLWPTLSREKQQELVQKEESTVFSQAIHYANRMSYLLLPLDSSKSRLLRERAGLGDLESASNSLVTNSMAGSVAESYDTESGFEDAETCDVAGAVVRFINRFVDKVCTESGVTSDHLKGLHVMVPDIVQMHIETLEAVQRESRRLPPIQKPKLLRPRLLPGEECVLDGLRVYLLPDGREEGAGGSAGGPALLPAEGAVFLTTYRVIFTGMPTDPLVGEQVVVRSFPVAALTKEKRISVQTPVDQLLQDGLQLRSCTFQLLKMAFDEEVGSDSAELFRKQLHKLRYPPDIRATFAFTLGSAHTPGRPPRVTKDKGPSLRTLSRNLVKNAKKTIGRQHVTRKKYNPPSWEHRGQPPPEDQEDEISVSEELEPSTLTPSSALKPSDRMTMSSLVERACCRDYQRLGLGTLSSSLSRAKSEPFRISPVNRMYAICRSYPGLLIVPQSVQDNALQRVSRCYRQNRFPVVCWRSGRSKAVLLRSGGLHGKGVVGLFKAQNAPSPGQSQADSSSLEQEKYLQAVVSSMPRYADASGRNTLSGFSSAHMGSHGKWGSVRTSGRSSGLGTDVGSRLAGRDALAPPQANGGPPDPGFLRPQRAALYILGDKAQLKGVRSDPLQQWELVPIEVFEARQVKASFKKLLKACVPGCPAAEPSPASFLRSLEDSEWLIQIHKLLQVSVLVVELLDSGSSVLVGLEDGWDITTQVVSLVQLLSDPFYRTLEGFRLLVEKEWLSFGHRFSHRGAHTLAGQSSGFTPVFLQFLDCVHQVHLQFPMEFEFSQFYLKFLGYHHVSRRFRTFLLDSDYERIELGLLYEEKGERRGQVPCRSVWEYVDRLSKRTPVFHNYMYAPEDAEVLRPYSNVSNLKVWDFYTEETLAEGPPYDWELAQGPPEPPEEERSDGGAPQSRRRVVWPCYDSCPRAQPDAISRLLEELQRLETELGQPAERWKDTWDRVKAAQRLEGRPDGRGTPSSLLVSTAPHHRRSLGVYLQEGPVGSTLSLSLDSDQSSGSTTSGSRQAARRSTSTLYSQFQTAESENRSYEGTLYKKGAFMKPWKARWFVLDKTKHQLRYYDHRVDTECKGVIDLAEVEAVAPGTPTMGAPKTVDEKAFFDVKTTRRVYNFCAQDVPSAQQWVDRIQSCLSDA
UniProt P67812: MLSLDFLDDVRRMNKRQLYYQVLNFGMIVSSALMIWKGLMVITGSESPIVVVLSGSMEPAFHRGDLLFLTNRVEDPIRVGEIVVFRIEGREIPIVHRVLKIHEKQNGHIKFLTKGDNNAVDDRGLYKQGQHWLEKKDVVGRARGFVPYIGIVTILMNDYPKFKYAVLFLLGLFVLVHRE
UniProt Q8WU76: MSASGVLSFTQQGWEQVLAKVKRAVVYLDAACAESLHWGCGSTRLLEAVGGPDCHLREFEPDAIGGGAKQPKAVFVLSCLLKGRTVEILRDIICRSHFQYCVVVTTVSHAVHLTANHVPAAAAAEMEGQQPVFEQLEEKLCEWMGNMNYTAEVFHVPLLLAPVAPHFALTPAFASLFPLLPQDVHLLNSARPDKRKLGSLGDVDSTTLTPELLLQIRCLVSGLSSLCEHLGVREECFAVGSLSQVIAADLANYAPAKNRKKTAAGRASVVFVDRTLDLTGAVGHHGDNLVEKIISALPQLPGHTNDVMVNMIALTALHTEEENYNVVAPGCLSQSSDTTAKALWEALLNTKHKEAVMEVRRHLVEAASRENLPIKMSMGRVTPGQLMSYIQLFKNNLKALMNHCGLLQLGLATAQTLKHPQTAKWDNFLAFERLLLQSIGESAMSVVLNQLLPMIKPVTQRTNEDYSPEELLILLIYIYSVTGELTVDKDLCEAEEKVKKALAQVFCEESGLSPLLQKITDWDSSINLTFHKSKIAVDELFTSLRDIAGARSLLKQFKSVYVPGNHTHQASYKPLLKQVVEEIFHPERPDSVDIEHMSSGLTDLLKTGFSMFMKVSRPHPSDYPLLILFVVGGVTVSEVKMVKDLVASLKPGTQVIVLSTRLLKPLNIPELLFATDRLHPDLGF
UniProt Q6IQ49: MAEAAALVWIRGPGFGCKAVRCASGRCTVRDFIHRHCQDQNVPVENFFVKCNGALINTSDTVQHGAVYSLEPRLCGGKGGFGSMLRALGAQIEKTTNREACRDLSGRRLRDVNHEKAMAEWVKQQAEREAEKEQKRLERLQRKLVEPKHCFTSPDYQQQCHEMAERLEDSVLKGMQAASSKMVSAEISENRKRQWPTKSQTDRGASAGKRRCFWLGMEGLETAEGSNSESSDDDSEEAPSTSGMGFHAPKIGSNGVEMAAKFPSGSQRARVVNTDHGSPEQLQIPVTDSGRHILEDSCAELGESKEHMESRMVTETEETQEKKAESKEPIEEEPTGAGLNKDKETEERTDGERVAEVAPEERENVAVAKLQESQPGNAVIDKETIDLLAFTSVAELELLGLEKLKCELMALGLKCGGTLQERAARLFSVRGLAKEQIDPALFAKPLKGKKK

What was measured:
Assay in all cases: log2 fold change, soluble protein after heating vs DMSO (PISA); higher = thermal stabilisation; K562 cells, 10 uM, 30 min; active = over 0.2 and 3.5 SD of the protein, either way, in both replicates (recomputed)
saracatinib = compound: CN1CCN(CCOc2cc(OC3CCOCC3)c3c(Nc4c(Cl)ccc5c4OCO5)ncnc3c2)CC1 [saracatinib]
Outline: (§1)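 Soluble protein was quantified by TMTpro 16plex LC-MS/MS after channel sums were equalised. It was obtained as the supernatant after 21,000xg for 90 min from pooled aliquots of K562 cells (2×10^6 cells/mL, 10 μM compound, 30 min) heated for 3 min across 48°C-58°C and extracted in PBS with 0.5% NP-40 at 4°C. Thermal stability values are relative to control samples and come from duplicates. They are given as log2 fold changes.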

sotrastaurin = compound: CN1CCN(c2nc(C3=C(c4c[nH]c5ccccc45)C(=O)NC3=O)c3ccccc3n2)CC1 [sotrastaurin]
Outline: as §1

alvocidib = compound: CN1CC[C@H](c2c(O)cc(O)c3c(=O)cc(-c4ccccc4Cl)oc23)[C@H](O)C1 [alvocidib]
Outline: as §1

Tubastatin A = compound: CN1CCc2c(c3ccccc3n2Cc2ccc(C(=O)NO)cc2)C1 [Tubastatin A]
Outline: as §1

[1] = compound: CNC(=O)C1=CC=CC=C1NC2=NC(=NC=C2Cl)NC3=C(C=C(C=C3)N4CCOCC4)OC
Outline: as §1

defactinib = compound: CNC(=O)c1ccc(Nc2ncc(C(F)(F)F)c(NCc3nccnc3N(C)S(C)(=O)=O)n2)cc1 [defactinib]
Outline: as §1

rucaparib = compound: CNCc1ccc(-c2[nH]c3cc(F)cc4c3c2CCNC4=O)cc1 [rucaparib]
Outline: as §1

[2] = compound: CNc1nc(-c2ccc3c(N)n[nH]c3c2)cc(N2C[C@@H](C(=O)NC3CCCCC3)CC[C@H]2C)n1
Outline: as §1

encorafenib = compound: COC(=O)N[C@@H](C)CNc1nccc(-c2cn(C(C)C)nc2-c2cc(Cl)cc(NS(C)(=O)=O)c2F)n1 [encorafenib]
Outline: as §1

[3] = compound: COC(=O)[C@H](CCSC)NC(=O)C1=C(C=C(C=C1)NC[C@H](CS)N)C2=CC=CC=C2
Outline: as §1

Target	log2 fold change (saracatinib)	log2 fold change (sotrastaurin)	log2 fold change (alvocidib)	log2 fold change (Tubastatin A)	log2 fold change [1]	log2 fold change (defactinib)	log2 fold change (rucaparib)	log2 fold change [2]	log2 fold change (encorafenib)	log2 fold change [3]
SDR39U1 (UniProt Q9NRG7)	inactive: -0.011	inactive: 0.356	inactive: 0.1	inactive: -0.052	inactive: 0.729	inactive: 0.453	inactive: -0.105	inactive: 1.16	inactive: -0.157	inactive: -0.367
SDHB (UniProt P21912)	inactive: 0.032	inactive: 0.02	inactive: 0.021	inactive: -0.045	inactive: 0.013	inactive: 0.006	inactive: -0.017	inactive: -0.067	inactive: -0.014	inactive: 0.029
SCGB1D2 (UniProt O95969)	inactive: -0.094	inactive: 0	inactive: -0.738	inactive: 0.185	inactive: -0.224	inactive: -0.043	inactive: -0.198	inactive: 0.035	inactive: -0.017	inactive: 0.25
SART3, A0A499FI31	inactive: -0.011	inactive: -0.13	active: -0.291	inactive: 0.035	inactive: 0.021	active: -0.448	inactive: -0.156	inactive: -0.041	inactive: 0.025	inactive: 0.001
SEC11C (UniProt Q9BY50)	inactive: -0.066	inactive: 0	inactive: 0.031	inactive: 0.005	inactive: -0.061	inactive: 0.012	inactive: 0.002	inactive: -0.002	inactive: 0.057	inactive: -0.041
SCAMP3 (UniProt O14828)	inactive: 0.057	inactive: 0.024	inactive: 0.032	inactive: -0.056	inactive: 0.046	inactive: 0	inactive: 0.009	inactive: -0.061	inactive: -0.026	inactive: 0.059
SEC13 isoform 3 (UniProt P55735)	inactive: -0.001	inactive: -0.049	inactive: 0.002	inactive: -0.001	inactive: 0.01	inactive: -0.042	inactive: -0.026	inactive: 0.017	inactive: -0.031	inactive: 0.017
SCAMP4 (UniProt Q969E2)	inactive: 0.072	inactive: 0.045	inactive: -0.044	inactive: -0.023	inactive: 0.023	inactive: -0.02	inactive: 0.019	inactive: 0.011	inactive: -0.03	inactive: 0.052
SARG (UniProt Q9BW04)	inactive: 0.013	inactive: 0.024	inactive: 0.032	inactive: -0.057	inactive: -0.07	inactive: -0.026	inactive: -0.089	inactive: -0.118	inactive: -0.051	inactive: -0.016
SCRN3 (UniProt Q0VDG4)	inactive: 0.106	inactive: -0.002	inactive: 0.002	inactive: 0.02	inactive: 0.001	inactive: -0.106	inactive: 0.012	inactive: 0.002	inactive: -0.048	inactive: -0.018
SCYL2 (UniProt Q6P3W7)	inactive: 0.017	inactive: -0.025	inactive: -0.054	inactive: 0.008	inactive: 0.014	inactive: -0.083	inactive: -0.021	inactive: -0.039	inactive: 0.036	inactive: -0.065
SEC23B (UniProt Q15437)	inactive: -0.013	inactive: 0	inactive: -0.075	inactive: -0.001	inactive: 0.017	inactive: -0.053	inactive: 0.03	inactive: -0.007	inactive: 0.015	inactive: -0.022
SAR1A (UniProt Q9NR31)	inactive: 0.022	inactive: -0.058	inactive: 0.109	inactive: -0.047	inactive: 0.03	inactive: 0.017	inactive: -0.014	inactive: -0.072	inactive: 0.012	inactive: -0.011
SDSL (UniProt Q96GA7)	inactive: 0.086	inactive: 0.017	inactive: -0.057	inactive: -0.046	inactive: -0.005	inactive: -0.001	inactive: -0.058	inactive: -0.104	inactive: -0.017	inactive: 0.002
SAR1B (UniProt Q9Y6B6)	inactive: 0.036	inactive: -0.023	inactive: -0.003	inactive: 0.012	inactive: 0.051	inactive: 0.016	inactive: -0.057	inactive: -0.048	inactive: 0.018	inactive: -0.055
SCARB1 isoform 2 (UniProt Q8WTV0)	inactive: -0.018	inactive: 0.046	inactive: -0.029	inactive: -0.009	inactive: -0.021	inactive: -0.022	inactive: -0.005	inactive: -0.037	inactive: 0.026	inactive: 0.016
S100P (UniProt P25815)	inactive: -0.152	inactive: 0.162	inactive: -0.039	inactive: 0.079	inactive: 0.047	inactive: -0.075	inactive: -0.088	inactive: 0.001	inactive: -0.068	inactive: 0.049
SCO1 (UniProt O75880)	inactive: -0.032	inactive: 0.041	inactive: -0.115	inactive: 0.024	inactive: 0.014	inactive: -0.026	inactive: -0.006	inactive: 0.025	inactive: -0.018	inactive: 0.365
SC5D (UniProt O75845)	inactive: -0.018	inactive: -0.005	inactive: -0.001	inactive: 0.002	inactive: -0.005	inactive: -0.009	inactive: -0.134	inactive: 0.022	inactive: -0.038	inactive: 0.088
RTRAF (UniProt Q9Y224)	inactive: -0.063	inactive: -0.013	inactive: 0.099	inactive: -0.003	inactive: 0.099	inactive: 0.148	inactive: 0.158	inactive: 0.011	inactive: 0.045	inactive: -0.009
SART1 (UniProt O43290)	inactive: -0.054	inactive: -0.009	inactive: 0.165	inactive: 0.095	inactive: -0.048	inactive: 0.173	inactive: 0.257	inactive: 0.059	inactive: 0.168	inactive: 0.025
RTF1 (UniProt Q92541)	inactive: 0	inactive: -0.022	inactive: -0.094	inactive: 0.042	inactive: 0.021	inactive: -0.091	inactive: -0.028	inactive: 0.037	inactive: 0.022	inactive: -0.017
SAMM50 (UniProt Q9Y512)	inactive: 0.053	inactive: 0.036	inactive: 0.005	inactive: -0.04	inactive: 0.001	inactive: 0.001	inactive: -0.023	inactive: -0.034	inactive: 0.005	inactive: 0.038
SBF1 isoform 4 (UniProt O95248)	inactive: -0.107	inactive: 0.019	inactive: -0.133	inactive: -0.018	inactive: -0.212	inactive: 0.038	inactive: 0.171	inactive: 0.139	inactive: 0.159	inactive: -0.017
SCRN2 (UniProt Q96FV2)	inactive: -0.015	inactive: -0.001	inactive: 0.23	inactive: 0.015	inactive: -0.021	inactive: -0.044	inactive: -0.127	inactive: 0.017	inactive: -0.036	inactive: 0.079
SEC11A isoform 3 (UniProt P67812)	inactive: 0.012	inactive: 0.037	inactive: 0.039	inactive: 0.012	inactive: 0.022	inactive: 0.028	inactive: -0.03	inactive: -0.012	inactive: 0.052	inactive: -0.048
SEC24C (UniProt P53992)	inactive: 0.032	inactive: -0.034	inactive: -0.075	inactive: 0.044	inactive: 0.031	inactive: -0.081	inactive: -0.012	inactive: 0.012	inactive: 0.042	inactive: -0.03
SCAP (UniProt Q12770)	inactive: -0.026	inactive: -0.012	inactive: -0.067	inactive: 0.106	inactive: 0.03	inactive: -0.018	inactive: -0.067	inactive: -0.032	inactive: 0.055	inactive: 0.002
SCFD2 (UniProt Q8WU76)	inactive: -0.094	inactive: -0.011	inactive: 0.008	inactive: 0.039	inactive: 0.088	inactive: -0.052	inactive: 0.198	inactive: 0.167	inactive: 0.085	inactive: -0.175
SDE2 (UniProt Q6IQ49)	inactive: -0.03	inactive: 0.022	inactive: 0.103	inactive: 0.085	inactive: 0.01	inactive: 0.015	inactive: -0.09	inactive: -0.072	inactive: 0.014	inactive: 0.007

A different layout for part of the listing above:
Target | log2 fold change (saracatinib) | log2 fold change (sotrastaurin) | log2 fold change (alvocidib) | log2 fold change (Tubastatin A) | log2 fold change [1] | log2 fold change (defactinib) | log2 fold change (rucaparib) | log2 fold change [2] | log2 fold change (encorafenib) | log2 fold change [3]
SART1 (UniProt O43290) | inactive: -0.054 | inactive: -0.009 | inactive: 0.165 | inactive: 0.095 | inactive: -0.048 | inactive: 0.173 | inactive: 0.257 | inactive: 0.059 | inactive: 0.168 | inactive: 0.025
SBF1 isoform 4 (UniProt O95248) | inactive: -0.107 | inactive: 0.019 | inactive: -0.133 | inactive: -0.018 | inactive: -0.212 | inactive: 0.038 | inactive: 0.171 | inactive: 0.139 | inactive: 0.159 | inactive: -0.017
